Measurements: paper doi:10.1101/2025.10.22.684039
No constants are given. Whether binding was seen depends on the method and setting. In cells and extracts the contact can be indirect. Some binding calls cover weakened binding; strength is not graded here.

By UniProt entry, the sequences of proteins in these tests, tags left out.
UniProt Q9H4L5: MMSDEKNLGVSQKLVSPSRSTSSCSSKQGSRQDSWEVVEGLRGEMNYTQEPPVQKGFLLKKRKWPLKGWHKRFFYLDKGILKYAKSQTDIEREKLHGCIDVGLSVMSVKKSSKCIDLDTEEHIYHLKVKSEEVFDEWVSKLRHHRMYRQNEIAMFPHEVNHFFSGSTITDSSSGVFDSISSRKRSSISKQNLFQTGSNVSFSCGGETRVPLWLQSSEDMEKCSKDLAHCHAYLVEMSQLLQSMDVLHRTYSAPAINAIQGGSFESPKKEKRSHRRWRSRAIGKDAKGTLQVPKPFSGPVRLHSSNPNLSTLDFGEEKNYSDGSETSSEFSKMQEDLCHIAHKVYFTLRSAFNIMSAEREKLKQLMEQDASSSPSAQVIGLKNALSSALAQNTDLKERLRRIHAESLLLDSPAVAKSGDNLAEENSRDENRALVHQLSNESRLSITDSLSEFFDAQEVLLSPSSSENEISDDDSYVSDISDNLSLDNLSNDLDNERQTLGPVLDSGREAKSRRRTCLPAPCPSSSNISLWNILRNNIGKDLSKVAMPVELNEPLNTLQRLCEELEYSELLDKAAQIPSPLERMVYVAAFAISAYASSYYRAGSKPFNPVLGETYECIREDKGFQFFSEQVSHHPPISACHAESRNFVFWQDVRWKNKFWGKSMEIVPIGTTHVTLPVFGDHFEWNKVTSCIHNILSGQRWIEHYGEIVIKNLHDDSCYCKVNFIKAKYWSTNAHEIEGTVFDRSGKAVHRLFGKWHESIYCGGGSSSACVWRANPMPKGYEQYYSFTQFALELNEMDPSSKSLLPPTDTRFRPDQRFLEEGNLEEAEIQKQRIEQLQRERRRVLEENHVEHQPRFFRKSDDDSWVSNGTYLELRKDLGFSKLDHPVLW

Target: T1, VAPA (human (endogenous in HeLa)) (UniProt Q9P0L0)
T1 sequence: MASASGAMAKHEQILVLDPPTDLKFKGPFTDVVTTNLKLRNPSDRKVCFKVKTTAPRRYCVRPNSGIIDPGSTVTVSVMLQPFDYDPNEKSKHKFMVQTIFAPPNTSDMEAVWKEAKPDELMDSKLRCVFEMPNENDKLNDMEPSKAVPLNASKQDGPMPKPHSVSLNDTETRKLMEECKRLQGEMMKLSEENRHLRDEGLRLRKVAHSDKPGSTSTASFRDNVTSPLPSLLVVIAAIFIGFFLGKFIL
Assay: co-IP

binding: binds
Substance: ORP3 (from UniProt Q9H4L5 1-887)
